# Data source: PubChem BioAssay AID504793 (Drosophila RNAi Screening Center, 2011)
# Purpose: 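Genes required for cells to halt at G2/M after double-strand DNA breaks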 (primary screen)
# System: Drosophila S2R+ cells
# Knock-down reagent: long dsRNA against Drosophila genes, about 0.25 µg dsRNA per well
# Timing: 4 days of dsRNA, then 4 hours of drug before read-out
# Treatment: doxorubicin 0.5 µM for 4 hours to cause double-strand breaks, in cells also given a low, harmless dose of dsRNA against nbs to sensitise the assay
# Read-out: 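Per-well count of mitotic cells stained for phospho-histone H3 after doxorubicin exposure, used as mitotic index; counts are raw and not normalised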
# Reading the numbers: mitotic cells: higher = more cells in mitosis, weaker G2 arrest
# Active means: 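a call needs confirmation in secondary tests, with other dsRNAs and a check of mitotic timing without damage, not just a high primary count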
# Meaning of the calls: active = confirmed in follow-up tests; inactive = not confirmed
# In all, the deposit lists about 23,000 reagents; below is a random part of those with a known target gene and a result. Of all reagents, 62 (0.27%) were called active. 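Calls come from follow-up tests whose scores are not deposited, so confirmed genes may have low counts here; counts are not normalised per plate.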 The raw values are shown without normalisation. Names joined by + are all predicted targets of the reagent.
gene,DRSC id,"mitotic cells, replicate 1",activity call
CG9903,DRSC20213,10,inactive
Bicra,DRSC14417,18,inactive
Bicra,DRSC25127,11,inactive
CG31104,DRSC14658,15,inactive
CG31104,DRSC24390,7,inactive
BHD,DRSC11017,9,inactive
BHD,DRSC22833,9,inactive
BHD,DRSC27469,10,inactive
Chpf,DRSC19491,10,inactive
Chpf,DRSC19893,2,inactive
CG10654,DRSC09767,1,inactive
CG3557,DRSC00614,4,inactive
ras,DRSC18825,5,inactive
ras,DRSC27137,9,inactive
FMRFa,DRSC07428,5,inactive
TotA,DRSC13448,9,inactive
l(1)sc,DRSC18789,12,inactive
l(1)sc,DRSC28734,2,inactive
Cpr64Aa,DRSC08460,4,inactive
Cpr64Aa,DRSC23801,4,inactive
CG33128,DRSC00294,4,inactive
CG33128,DRSC28698,4,inactive
CG15256,DRSC01940,6,inactive
CG12237,DRSC19449,18,inactive
CG12237,DRSC22256,10,inactive
CG12237,DRSC24647,7,inactive
CG3735,DRSC04411,7,inactive
CG13014,DRSC19533,8,inactive
CG13014,DRSC24448,9,inactive
ckn,DRSC06149,8,inactive
pn,DRSC18822,8,inactive
pn,DRSC28649,14,inactive
CG17187,DRSC15181,4,inactive
CG17187,DRSC29903,4,inactive
Cftr,DRSC15872,6,inactive
Cftr,DRSC24655,5,inactive
CG33189,DRSC21427,15,inactive
CG33189,DRSC25923,4,inactive
Stip1,DRSC00756,4,inactive
betaTub65B,DRSC11393,7,inactive
CG8611,DRSC19340,6,inactive
CG8611,DRSC24619,4,inactive

The list goes on (11 carried over from the part before).
gene,DRSC id,"mitotic cells, replicate 1",activity call
pn,DRSC28649,14,inactive
CG17187,DRSC15181,4,inactive
CG17187,DRSC29903,4,inactive
Cftr,DRSC15872,6,inactive
Cftr,DRSC24655,5,inactive
CG33189,DRSC21427,15,inactive
CG33189,DRSC25923,4,inactive
Stip1,DRSC00756,4,inactive
betaTub65B,DRSC11393,7,inactive
CG8611,DRSC19340,6,inactive
CG8611,DRSC24619,4,inactive
CG15117,DRSC06539,14,inactive
CG15117,DRSC25471,11,inactive
CG32214,DRSC09613,9,inactive
Utx,DRSC02872,8,inactive
TAF1C-like,DRSC04073,4,inactive
CG10958,DRSC17768,7,inactive
CG10958,DRSC29583,5,inactive
CG6805,DRSC07011,4,inactive
CG6805,DRSC29352,6,inactive
Mpi,DRSC16417,4,inactive
MCTS1,DRSC18393,8,inactive
CG9083,DRSC04625,12,inactive
CG9083,DRSC25523,7,inactive
ncm,DRSC02179,4,inactive
ncm,DRSC29504,2,inactive
CG15601,DRSC19670,9,inactive
CG8369,DRSC16413,6,inactive
levy,DRSC04289,10,inactive
CG31115,DRSC13692,19,inactive
CG31115,DRSC26097,5,inactive
CG42843 (retired record),DRSC02231,7,inactive
CG42843 (retired record),DRSC02233,2,inactive
CG42843 (retired record),DRSC28467,7,inactive
CG3744,DRSC15511,18,inactive
CG3744,DRSC29964,5,inactive
Gr36a,DRSC22663,6,inactive
Gr36a,DRSC27724,2,inactive
fd59A,DRSC04685,3,inactive
fd59A,DRSC25524,7,inactive
nero,DRSC15432,6,inactive
Prosbeta4R2,DRSC00503,5,inactive
Prosbeta4R2,DRSC28235,4,inactive
Fum4,DRSC22577,13,inactive
Fum4,DRSC24772,4,inactive
asRNA:Eig63F-2,DRSC27877,5,inactive
mbm + CG11555,DRSC00315,5,inactive
Vajk2,DRSC02540,4,inactive
Vajk2,DRSC25275,3,inactive
obst-I,DRSC08339,7,inactive
pHCl-2,DRSC14306,5,inactive
syd,DRSC10963,6,inactive
syd,DRSC24418,8,inactive
red,DRSC23177,6,inactive
CG8750,DRSC11037,4,inactive
CG32547,DRSC19263,26,inactive
CG32547,DRSC19474,8,inactive
Setx,DRSC10859,6,inactive
CG1146,DRSC08189,1,inactive
CG1146,DRSC25486,6,inactive
sNPF,DRSC23403,,inactive
CG9902,DRSC20212,12,inactive
CG9902,DRSC24871,11,inactive
Top2,DRSC03459,70,active
fd19B,DRSC20688,6,inactive
fd19B,DRSC26447,4,inactive
CG15170,DRSC02471,5,inactive
plx,DRSC12260,8,inactive
plx,DRSC12385,8,inactive
plx,DRSC22683,10,inactive
plx,DRSC28545,10,inactive
CG9121,DRSC03142,7,inactive
Ask1,DRSC16789,7,inactive
Ask1,DRSC21697,9,inactive
CG13898,DRSC08368,2,inactive
CG2533,DRSC19855,16,inactive
CG2533,DRSC28777,4,inactive
CG15506,DRSC15047,17,inactive
dpr7,DRSC17109,4,inactive
dpr7,DRSC26544,4,inactive
